Results taken from PubChem BioAssay AID652054 (National Center for Advancing Translational Sciences (NCATS), 2013).
Out of some 360,000 compounds screened, about 9,100 (2.5%) were called active. This list was built around the results that the source calls inconclusive (neither active nor inactive); the mix of calls is not that of the screen. Rule as the data show it: active = max response below about -50%; inconclusive = no clear call, values can overlap the other calls; inactive = above that.

By UniProt entry, the sequences of proteins in these tests, tags left out.
UniProt P35462, whole entry, looked up: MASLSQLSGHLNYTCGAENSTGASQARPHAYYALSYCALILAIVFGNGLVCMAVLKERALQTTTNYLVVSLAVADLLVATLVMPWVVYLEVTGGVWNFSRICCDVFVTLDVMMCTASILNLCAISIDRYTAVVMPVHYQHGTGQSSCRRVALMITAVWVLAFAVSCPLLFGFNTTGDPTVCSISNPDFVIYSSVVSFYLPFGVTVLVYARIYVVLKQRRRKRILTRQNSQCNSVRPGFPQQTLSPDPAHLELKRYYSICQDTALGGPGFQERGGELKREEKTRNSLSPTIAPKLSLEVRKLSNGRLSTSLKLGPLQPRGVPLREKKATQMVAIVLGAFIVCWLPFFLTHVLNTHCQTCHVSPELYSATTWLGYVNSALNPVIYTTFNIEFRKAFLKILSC

Target: D(3) dopamine receptor (Homo sapiens) (UniProt P35462)
Experiment: qHTS of D3 Dopamine Receptor Antagonist: qHTS
Settings: D3R cells, DiscoveRx beta-arrestin luminescence, antagonist mode; active compounds read low
Method in brief: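 Cells plated overnight at 1500 cells/well, then exposed to library compounds with dopamine controls for 90 minutes at 37 degrees C. DiscoveRx reagent added for 30–60 minutes at room temperature; luminescence read, quantitative HTS format.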
% is scaled to controls: 0 for no effect and ±100 for the full control effect.

| SMILES | max response, negative = inhibition |
| --- | --- |
| CCOc1ccc(C(C)(C)C)cc1S(=O)(=O)n1nc(C)cc1C | active: -50.2% |
| Nc1cccc2nc3ccccc3cc12 | inactive: -14.8% |
| CCCCC(c1nnnn1CC1CCCO1)N1CCN(c2cc(Cl)ccc2C)CC1 (configuration not stated) | active: -86.2% |
| COC(=O)[C@@]1(Cc2ccccc2)[C@H]2C(=O)N(Cc3ccccc3)C(=O)[C@H]2[C@H]2CN=C(SCc3ccc(C)cc3)N21 | inactive: 3.37% |
| CCCCn1c(N)c(N(CC(C)C)C(=O)CCS(=O)(=O)c2ccc(C)cc2)c(=O)[nH]c1=O | inactive: -0.0213% |
| CC(=NNC(=O)c1cccc(S(=O)(=O)N2CCOCC2)c1)c1ccccc1 | inactive: 17.7% |
| COc1ccc(C(CC(=O)O)c2ccc3c(c2)OCO3)cc1 (configuration not stated) | inconclusive: -42.1% |
| O=C(CCCN1C(=O)/C(=C\c2cccs2)SC1=S)NNC(=O)c1cccnc1 | inactive: 1.88% |
| COc1ccc(OCc2nnc(SC(C)C(=O)Nc3ccc(N4CCOCC4)cc3)n2C)cc1 (configuration not stated) | active: -77.2% |
| Cn1c(N)c(N=O)c(=O)n(C)c1=S | inactive: -24.1% |
| CCSc1nc2ccccc2n1Cc1cccc([N+](=O)[O-])c1 | inconclusive: -45.3% |
| Cc1ccc(C(C(=O)NC2CCCCC2)N(CC2CCCO2)C(=O)CCCC(=O)Nc2ccccn2)cc1 (configuration not stated) | inactive: 8.34% |
| Cc1cc(C)cc(OC(=O)CS(=O)c2ccc(C(F)(F)F)cc2[N+](=O)[O-])c1 (configuration not stated) | active: -73.3% |
| O=C(Oc1cccc2cccnc12)c1ccc(N2C(=O)C3C4CCC(C4)C3C2=O)cc1 (configuration not stated) | inconclusive: -45.6% |
| COc1ccc(N2CCN(CC(=O)Nc3cc(C)on3)CC2)cc1 | inconclusive: -40.3% |
| CC(C)C[C@@]12C(=O)N(c3cccc(F)c3)C(=O)N1[C@H](c1ccc(Br)cc1)[C@@H]1C(=O)N(C(C)(C)C)C(=O)[C@@H]12 | inconclusive: -48% |
| COc1cc(/C=N/NC(=O)COc2c(C)cc([N+](=O)[O-])cc2C)ccc1OC(=O)c1ccccc1 | inactive: 27.5% |
| CC(C)NC(=O)N1Cc2cc(C(=O)NC3CCC3)nc(-c3cccc(-c4cncnc4)c3)c2[C@H]1CCO | inconclusive: -31.3% |
| O=C(c1ccccc1)n1ccc2ccccc21 | inconclusive: -30.9% |
| O=C(N/N=C/c1cc(Br)c(Br)o1)c1cc2ccccc2o1 | inconclusive: -30.3% |
| COc1ccc(CN(C)CC(=O)Nc2ccccc2C(=O)NC2CC2)cc1F | inconclusive: -39.1% |
| Cc1c(/C=N/NC(=O)C(NC(=O)c2ccc3c(c2)OCO3)C(C)C)c2ccccc2n1C (configuration not stated) | inconclusive: -41% |

| SMILES | max response, negative = inhibition |
| --- | --- |
| Cc1nc(Nc2ccccc2Cl)sc1C(=O)Nc1ccccc1 | inactive: 7.22% |
| CCOC(=O)C1(C)CCN1C(=O)c1ccc(OC)cc1OC (configuration not stated) | inactive: 13.4% |
| C=CCOc1ccc(C2OC34CCCCC3C(C#N)(C#N)C2(C#N)C(=N)O4)cc1 (configuration not stated) | inconclusive: -35.1% |
| COC(=O)c1ccc(CSc2ncnc3c2sc2nc(N4CCOCC4)c4c(c23)CCCC4)o1 | inconclusive: -30% |
| Clc1ccc(COc2ccccc2CNCc2cccnc2)cc1 | inconclusive: -31.1% |
| COc1cccc(C(=O)NCCN2CCN(c3ccccc3)CC2)c1 | inconclusive: -49.4% |
| COc1ccc2c(c1)[nH]c1c(N3CCN(Cc4ccc5c(c4)OCO5)CC3)ncnc12 | inactive: 41.6% |
| Cc1ccc2c(c1)N(CC(=O)N1CCN(c3nc4ccccc4s3)CC1)C(=O)C(C)O2 (configuration not stated) | inconclusive: -36.9% |
| CCCS(=O)(=O)N1CCCC(C(=O)NCCc2ccc(Cl)cc2)C1 (configuration not stated) | active: -63.1% |
| COc1ccccc1NC(=O)C(CC(=O)O)Cc1cc(C)cc(C)c1 (configuration not stated) | inactive: -7.58% |
| Cc1cc(C(=O)CN2C(=O)C(=O)N(CC(C)C)C2=O)c(C)n1C1CC1 | inactive: 21.1% |
| O=C(Nc1ccccc1O)c1c(O)c2c([nH]c1=O)CCCC2 | inactive: -23.1% |
| O=C(Nn1c(=S)[nH]c2ccccc2c1=O)c1ccncc1 | inconclusive: -35% |
| O=c1c(Br)ccc(Br)cc1Br | active: -114% |
| Cc1onc(-c2ccccc2Cl)c1C(=O)NCc1ccc(N2CCCC2=O)cc1 | inconclusive: -35.2% |
| O=[N+]([O-])c1ccc(O)c(C(C#Cc2ccccc2)N2CCOCC2)c1 (configuration not stated) | inactive: 7.15% |
| CC1CCCC(NC(=O)CCCCCn2c(=S)[nH]c3ccsc3c2=O)C1C (configuration not stated) | inactive: 0% |
| Cc1c(O)ccc2c3c(c(=O)oc12)CCC(C)C3 (configuration not stated) | inactive: 0% |
| Cc1cccc(NC(=S)NC(=O)c2cccs2)n1 | inconclusive: -30% |
| O=C(O)c1ccccc1NS(=O)(=O)c1ccc(N/N=C/c2ccc(O)c(O)c2)c([N+](=O)[O-])c1 | inconclusive: -45.1% |
| CCN(CC)S(=O)(=O)c1ccc(Cl)c(C(=O)NCC2CCCO2)c1 (configuration not stated) | inactive: 5.9% |
| CC(=O)Nc1sc2c(c1C(c1cccc(Cl)c1)N1CCN(CCO)CC1)CCCC2 (configuration not stated) | inconclusive: -49.3% |

| SMILES | max response, negative = inhibition |
| --- | --- |
| COc1cc2c(cc1OC)-c1cc(N3CCCc4ccccc43)nc(=O)n1CC2 | inactive: -20% |
| CCCCNC(=O)c1cc2c(=O)n(CC)c3ccccc3c2s1 | inactive: 0% |
| O=c1oc2c(CN3CCCCC3)c(O)ccc2cc1-c1nc2ccccc2[nH]1 | inactive: 9.19% |
| COc1ccc(CNC(=O)Cc2ccc(-c3ccccc3)cc2)cc1OC | inconclusive: -31.7% |
| CCN(CC)CCN1C(=O)C(=O)/C(=C(/O)c2c(C)[nH]c(C(=O)OC)c2C)C1c1cccc(OC)c1 (configuration not stated) | inconclusive: -31.8% |
| Cc1ccc(SC[C@H](Cc2ccccc2)N2CCN(C)CCC2=O)cc1 | inconclusive: -34.1% |
| Cc1ccc(CNC(=O)/C=C/c2c(Cl)cccc2Cl)cc1 | inactive: 10.1% |
| O=C(CN1CCc2ccccc2C1)Nc1ccc(Br)cc1 | active: -52.1% |
| CCN(CC1CCCN(CCc2cccc(F)c2)C1)C(=O)c1ccoc1C (configuration not stated) | active: -50.8% |
| Oc1ccc(N=C/C=C/c2cccc(Br)c2)cc1-c1nc2ccccc2s1 | inactive: -1.54% |
| Cc1cc(NC(=O)CSc2ccc(-c3nc4cc(C)c(C)cc4[nH]3)cn2)no1 | inconclusive: -36.2% |
| CCC(C)NCCCOc1ccc(C)cc1OC (configuration not stated) | inconclusive: -39.6% |
| CC1=NN(c2ccccc2)C(=O)/C1=C/c1ccc(Cl)cc1 | inactive: 10.9% |
| CC[C@@H]1[C@H]2CCCC(=O)N3CC[C@@H](C[C@@H]1Nc1ccccc1)[C@@H]23 | inconclusive: -34.1% |
| CCn1nc(C(=O)NC2=NCCS2)c2ccccc2c1=O | inconclusive: -37.8% |
| CCCn1cc(CN2CCCC(C(=O)c3ccc4c(c3)OCO4)C2)c(C)n1 (configuration not stated) | active: -53.5% |
| CCN1CCN(S(=O)(=O)c2cccc([N+](=O)[O-])c2)CC1 | inconclusive: -38.7% |
| C=CCc1cc(Cl)ccc1OCCNCCCOC | active: -59.1% |
| Cc1cccc(Oc2sc(C(=O)c3ccccc3)c(N)c2C#N)c1 | inactive: -12.2% |
| C[n+]1c2n(c3ccccc31)N=C(c1ccc(Br)cc1)CS2 | inconclusive: -30.4% |
| CCCCn1nc(C(=O)NC2CCCCC2)c2ccccc2c1=O | inactive: -13.8% |
| C#CCOCCOCCOCCNc1nc(N2CCN(C(=O)[C@H](CCCCN)n3cc([C@@H](N)C(C)CC)nn3)CC2)nc(N2CCN(C(=O)[C@H](Cc3ccc(O)cc3)n3cc([C@@H](N)CC(C)C)nn3)CC2)n1 (some centres not stated) | inconclusive: -34.6% |

| SMILES | max response, negative = inhibition |
| --- | --- |
| Cc1cnn(CCC(=O)NNC(=S)Nc2ccc(F)cc2)c1 | inconclusive: -38.8% |
| CC(C)(C)n1nnnc1C(c1cc2ccccc2o1)N1CCN(C(=O)OCc2ccccc2)CC1 (configuration not stated) | active: -62.9% |
| O=C1CC(N2CCC(O)CC2)C(=O)N1c1ccc(Br)cc1 (configuration not stated) | inconclusive: -33.7% |
| NC(=O)c1nsc(C(=O)N(Cc2ccco2)C(C(=O)NCc2ccc(F)cc2)c2ccc(O)cc2)c1N (configuration not stated) | inactive: 9.66% |
| COC(=O)c1cc(CNC(=O)c2ccccc2Cl)ccc1OC | inactive: 9.4% |
| C[C@@H](C(=O)Nc1ccc(SC(F)F)cc1)N1C(=O)C2CCCCC2C1=O (some centres not stated) | inconclusive: -30.1% |
| COc1cccc(/C=N/NC(=O)C[n+]2ccccc2)c1OC | inconclusive: -42.6% |
| O=C(O)C1C2CCC(O2)C1C(=O)NCc1ccccc1Br (configuration not stated) | inconclusive: -39.3% |
| O=C(O)c1cccc2c1-c1ccc(Cl)cc1C2 | inactive: -10.4% |
| COc1ccccc1NC(=O)CSc1nnc(C2CCCCC2)n1-c1ccccc1 | inactive: 6.45% |
| O=C(COC(=O)c1ccccc1OCC(=O)Nc1ccc(Br)cc1)Nc1ccccc1 | active: -51.5% |
| C/C(=N\NC(=O)c1ccccc1Cl)c1ccccn1 | inconclusive: -45.7% |
| CC(=O)c1cnc2cc(C)nn2c1C | inconclusive: -34% |
| Cn1c(=O)[nH]c(=O)c2c1nc(Sc1nc3ccccc3s1)n2Cc1ccccc1 | inactive: -9.52% |
| O=C(Cc1ccc(Cl)cc1)Oc1cccc2cccnc12 | inconclusive: -48% |
| COc1ccc(/C=C/C(=O)c2ccoc2)cc1 | inconclusive: -36.9% |
| N#CCOC(=O)c1sccc1-n1cccc1 | inconclusive: -30.9% |
| O=C(CCc1nc(-c2ccccc2F)no1)NCc1ccco1 | active: -87.9% |
| COc1cccc2c1OCC(CN1CCN(Cc3ccccc3)C(CCO)C1)=C2 (configuration not stated) | active: -93.6% |
| OC[C@@H]1CN(C2CCCC2)C[C@H](n2cnc3c(NC4CC4)ncnc32)O1 | inactive: -9.27% |
| Cc1ccc(-c2ccc(/C=N/N3C(=O)C4C5C=CC(CC5)C4C3=O)o2)c([N+](=O)[O-])c1 (configuration not stated) | inconclusive: -37.7% |

Looked up by compound from the entries so far (2):

| SMILES | max response, negative = inhibition |
| --- | --- |
| CCN(CC)S(=O)(=O)c1ccc(Cl)c(C(=O)NCC2CCCO2)c1 (configuration not stated) | inactive: 5.9% |
| CCOc1ccc(C(C)(C)C)cc1S(=O)(=O)n1nc(C)cc1C | active: -50.2% |
